Measured values as given in publication PMC5495335.
No constants are given. Whether binding was seen depends on the method and setting. In cells and extracts the contact can be indirect. Some results given as binding are weak or reduced against the parent protein; the word gives no strength.

Chains of the proteins cited; added tags and fusions are not shown.
UniProt P29350: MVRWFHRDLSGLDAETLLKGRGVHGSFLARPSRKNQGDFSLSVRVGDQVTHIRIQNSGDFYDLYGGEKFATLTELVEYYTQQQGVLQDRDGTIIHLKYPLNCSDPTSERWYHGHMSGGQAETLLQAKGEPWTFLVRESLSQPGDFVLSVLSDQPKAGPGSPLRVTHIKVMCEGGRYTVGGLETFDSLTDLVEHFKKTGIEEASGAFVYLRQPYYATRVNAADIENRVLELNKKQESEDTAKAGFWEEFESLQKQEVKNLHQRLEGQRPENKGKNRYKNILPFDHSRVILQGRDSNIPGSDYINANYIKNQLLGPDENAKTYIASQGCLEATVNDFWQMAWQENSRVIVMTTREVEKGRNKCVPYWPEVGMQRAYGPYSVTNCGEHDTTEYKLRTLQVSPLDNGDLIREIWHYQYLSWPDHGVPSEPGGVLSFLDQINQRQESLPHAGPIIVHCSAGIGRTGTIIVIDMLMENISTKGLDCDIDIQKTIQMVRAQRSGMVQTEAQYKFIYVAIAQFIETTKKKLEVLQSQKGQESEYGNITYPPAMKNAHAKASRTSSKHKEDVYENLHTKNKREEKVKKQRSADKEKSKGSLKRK
UniProt P43403: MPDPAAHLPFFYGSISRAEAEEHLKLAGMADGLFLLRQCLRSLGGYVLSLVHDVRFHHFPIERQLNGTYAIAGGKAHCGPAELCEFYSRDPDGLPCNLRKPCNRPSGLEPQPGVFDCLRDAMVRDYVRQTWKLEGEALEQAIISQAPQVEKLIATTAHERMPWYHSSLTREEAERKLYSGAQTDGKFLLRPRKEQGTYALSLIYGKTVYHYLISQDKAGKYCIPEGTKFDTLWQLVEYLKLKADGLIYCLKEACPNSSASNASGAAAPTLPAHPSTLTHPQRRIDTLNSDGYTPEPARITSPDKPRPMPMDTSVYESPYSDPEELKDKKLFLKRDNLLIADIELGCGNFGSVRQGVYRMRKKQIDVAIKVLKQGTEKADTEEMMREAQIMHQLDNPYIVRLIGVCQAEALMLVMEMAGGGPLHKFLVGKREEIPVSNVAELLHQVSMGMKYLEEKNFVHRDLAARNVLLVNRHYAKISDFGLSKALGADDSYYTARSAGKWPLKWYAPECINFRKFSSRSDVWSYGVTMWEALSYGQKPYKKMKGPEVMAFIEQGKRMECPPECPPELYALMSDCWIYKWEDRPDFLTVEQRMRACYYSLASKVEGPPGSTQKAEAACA

B1: docking protein SLP76 (protein, UniProt Q13094 1-533)
chain: MALRNVPFRSEVLGWDPDSLADYFKKLNYKDCEKAVKKYHIDGARFLNLTENDIQKFPKLRVPILSKLSQEINKNEERRSIFTRKPQVPRFPEETESHEEDNGGWSSFEEDDYESPNDDQDGEDDGDYESPNEEEEAPVEDDADYEPPPSNDEEALQNSILPAKPFPNSNSMYIDRPPSGKTPQQPPVPPQRPMAALPPPPAGRNHSPLPPPQTNHEEPSRSRNHKTAKLPAPSIDRSTKPPLDRSLAPFDREPFTLGKKPPFSDKPSIPAGRSLGEHLPKIQKPPLPPTTERHERSSPLPGKKPPVPKHGWGPDRRENDEDDVHQRPLPQPALLPMSSNTFPSRSTKPSPMNPLPSSHMPGAFSESNSSFPQSASLPPYFSQGPSNRPPIRAEGRNFPLPLPNKPRPPSPAEEENSLNEEWYVSYITRPEAEAALRKINQDGTFLVRDSSKKTTTNPYVLMVLYKDKVYNIQIRYQKESQVYLLGTGLRGKEDFLSVSDIIDYFRKMPLLLIDGKNRGSRYQCTLTHAAGYP

The molecules below were run against T1, CD6 lymphocyte surface receptor (human (endogenous in PBMC)) (UniProt P30203) (assay: co-IP; human PBMC plated 40 min on Fc-ALCAM-coated plates (10 ug/ml, TSM buffer) with or without Itolizumab (10 ug/ml), its F(ab')2 (equimolar) or Iso Ab, or treated with anti-CD3 (OKT3, 0.5 ng/ml) for 24 h; CD6 immunoprecipitated with Itolizumab or Iso Ab; immunoblot for Zap70, SLP76, phospho and total SHP1 and SHP2).
T1 sequence: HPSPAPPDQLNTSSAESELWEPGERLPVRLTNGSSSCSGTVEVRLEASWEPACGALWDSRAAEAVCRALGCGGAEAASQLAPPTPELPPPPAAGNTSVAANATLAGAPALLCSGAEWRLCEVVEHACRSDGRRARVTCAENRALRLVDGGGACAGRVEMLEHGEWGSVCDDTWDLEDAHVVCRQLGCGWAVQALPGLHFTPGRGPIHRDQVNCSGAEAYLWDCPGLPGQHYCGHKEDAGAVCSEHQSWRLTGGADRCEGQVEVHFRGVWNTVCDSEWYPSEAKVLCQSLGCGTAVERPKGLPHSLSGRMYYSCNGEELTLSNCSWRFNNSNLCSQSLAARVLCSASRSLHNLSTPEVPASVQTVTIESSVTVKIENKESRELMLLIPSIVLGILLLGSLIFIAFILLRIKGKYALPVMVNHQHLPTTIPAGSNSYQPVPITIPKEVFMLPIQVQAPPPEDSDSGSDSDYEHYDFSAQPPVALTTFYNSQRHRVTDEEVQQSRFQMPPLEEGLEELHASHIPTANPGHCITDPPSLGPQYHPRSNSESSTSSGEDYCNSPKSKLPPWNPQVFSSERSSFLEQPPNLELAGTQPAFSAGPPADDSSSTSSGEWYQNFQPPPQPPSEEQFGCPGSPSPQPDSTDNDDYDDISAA
For “SHP1 (from UniProt P29350 1-595) (enzyme)”, the binding was “binds”. For “ZAP70 kinase (from UniProt P43403 1-619) (enzyme)”, the binding was “binds”. In the case of B1, the binding is reported as “binds”.
